Results deposited as PubChem BioAssay AID1259405 (NCATS, 2018)
Purpose: 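Mouse-designed siRNAs used to find CHO productivity engineering targets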 (primary screen). Cells: Chinese hamster CHO-K1 ovary cells with stable secreted eGFP expression. Reagent: single siRNA against mouse genes, 0.8 pmol siRNA per well (2 µl of 400 nM stock). Timing: 3 days. Read-out: 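Per-well intracellular GFP measured by laser scanning cytometry, plus viability from ATP luminescence, each relative to plate median of non-targeting control wells, in %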. Scale: GFP, % of control: higher = more GFP per well, higher productivity; viability (ATP), % of control: higher = more viable cells (more ATP). Call rule: 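Called active when intracellular GFP, relative to negative control, is at or above 120%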.
Shown is an unselected part of about 50,000 reagents tested. Of all reagents, about 4,000 (8%) are marked active. 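Mouse siRNA library applied to hamster cells; one well for each siRNA.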 Unmarked entries are inactive. The numbers tell different reagents against one gene apart.

target gene | siRNA no. | GFP, % of control | viability (ATP), % of control
Akirin2 (GeneID 433693) | 1 | 89.2 | 78
Akirin2 (GeneID 433693) | 2 | 21.8 | 16.9
Akirin2 (GeneID 433693) | 3 | 75.4 | 27.8
Hs1bp3 (GeneID 58240) | 1 | 62.6 | 98.7
Hs1bp3 (GeneID 58240) | 2 | 107 | 75.6
Dpt (GeneID 56429) | 1 | 57.1 | 96.1
Dpt (GeneID 56429) | 2 | 48.9 | 81
Hspa5 (GeneID 14828) | 1 | 55.5 | 44.6
Hspa5 (GeneID 14828) | 2 | 55.1 | 38.1
Hspa5 (GeneID 14828) | 3 | 92.9 | 112
Cldn15 (GeneID 60363) | 1 | 50.9 | 69.3
Cldn15 (GeneID 60363) | 2 | 85.9 | 59.4
Cldn15 (GeneID 60363) | 3 | 83.1 | 116
Ndufa9 (GeneID 66108) | 1 | 72 | 74.4
Ndufa9 (GeneID 66108) | 2 | 63.6 | 74.1
Ndufa9 (GeneID 66108) | 3 | 61.5 | 51.6
Smad4 (GeneID 17128) | 1 | 76.7 | 77.4
Smad4 (GeneID 17128) | 2 | 88.7 | 77.5
Smad4 (GeneID 17128) | 3 | 65.1 | 93.5
Rnf11 (GeneID 29864) | 1 | 67.7 | 61
Rnf11 (GeneID 29864) | 2 | 56.4 | 62.3
Rnf11 (GeneID 29864) | 3 | 72.6 | 83
Atg4a (GeneID 666468) | 1 | 65.8 | 75.6
Atg4a (GeneID 666468) | 2 | 82.4 | 86.4
Atg4a (GeneID 666468) | 3 | 66.9 | 66.8
Cnga3 (GeneID 12790) | 1 | 100 | 93.1
Cnga3 (GeneID 12790) | 2 | 101 | 88
Cnga3 (GeneID 12790) | 3 | 39.6 | 73.4
Gm20815 (GeneID 100039753) | 1 | 77.9 | 68.7
Gm20815 (GeneID 100039753) | 2 | 72.9 | 32.7
Gm20815 (GeneID 100039753) | 3 | 51.9 | 61.3
Pex11a (GeneID 18631) | 1 | 93.7 | 53.1
Pex11a (GeneID 18631) | 2 | 91.9 | 78.8
Pex11a (GeneID 18631) | 3 | 60.1 | 62.8
Saa4 (GeneID 20211) | 1 | 49.7 | 38.8
Saa4 (GeneID 20211) | 2 | 110 | 88.4
Saa4 (GeneID 20211) | 3 | 77.2 | 48
Slu7 (GeneID 193116) | 1 | 76.1 | 45.5
Slu7 (GeneID 193116) | 2 | 89 | 78.9
Slu7 (GeneID 193116) | 3 | 55.2 | 25.9
Nr2f1 (GeneID 13865) | 1 | 93.4 | 92.1
Nr2f1 (GeneID 13865) | 2 | 107 | 81.5
Fbxl12 (GeneID 30843) | 1 | 67.8 | 81
Fbxl12 (GeneID 30843) | 2 | 31.9 | 21.2
Fbxl12 (GeneID 30843) | 3 | 105 | 91.9
Rab28 (GeneID 100972) | 1 | 100 | 50.6
Rab28 (GeneID 100972) | 2 | 51.5 | 56.7
Rab28 (GeneID 100972) | 3 | 58.4 | 54.9

The list goes on; the last 9 above are carried over.
target gene | siRNA no. | GFP, % of control | viability (ATP), % of control
Slu7 (GeneID 193116) | 3 | 55.2 | 25.9
Nr2f1 (GeneID 13865) | 1 | 93.4 | 92.1
Nr2f1 (GeneID 13865) | 2 | 107 | 81.5
Fbxl12 (GeneID 30843) | 1 | 67.8 | 81
Fbxl12 (GeneID 30843) | 2 | 31.9 | 21.2
Fbxl12 (GeneID 30843) | 3 | 105 | 91.9
Rab28 (GeneID 100972) | 1 | 100 | 50.6
Rab28 (GeneID 100972) | 2 | 51.5 | 56.7
Rab28 (GeneID 100972) | 3 | 58.4 | 54.9
Kcnj5 (GeneID 16521) | 1 | 94.2 | 58.1
Kcnj5 (GeneID 16521) | 2 | 103 | 88.2
Kcnj5 (GeneID 16521) | 3 | 76.1 | 93.3
Camk2a (GeneID 12322) | 1 | 148 (active) | 117
Camk2a (GeneID 12322) | 2 | 88.8 | 64.9
Camk2a (GeneID 12322) | 3 | 61.3 | 65.4
Ccdc88a (GeneID 108686) | 1 | 74.6 | 58.9
Ccdc88a (GeneID 108686) | 2 | 66.4 | 73.5
Ccdc88a (GeneID 108686) | 3 | 90 | 111
Vmn1r216 (GeneID 171279) | 1 | 79.8 | 66.3
Vmn1r216 (GeneID 171279) | 2 | 59.4 | 50.8
Vmn1r216 (GeneID 171279) | 3 | 75.1 | 75
Cyp2j11 (GeneID 100066) | 1 | 103 | 105
Cyp2j11 (GeneID 100066) | 2 | 69.1 | 74.5
Cyp2j11 (GeneID 100066) | 3 | 115 | 76.6
Naip2 (GeneID 17948) | 1 | 106 | 60.2
Naip2 (GeneID 17948) | 2 | 80.1 | 83.7
Naip2 (GeneID 17948) | 3 | 87.6 | 97.9
Retnlg (GeneID 245195) | 1 | 113 | 76.4
Retnlg (GeneID 245195) | 2 | 66.3 | 68.5
Retnlg (GeneID 245195) | 3 | 63.2 | 98.8
Klk1 (GeneID 16612) | 1 | 88.6 | 76.8
Klk1 (GeneID 16612) | 2 | 122 (active) | 74.1
Klk1 (GeneID 16612) | 3 | 78.9 | 85.9
Kdg4 (GeneID 66128) | 1 | 115 | 69.1
Kdg4 (GeneID 66128) | 2 | 71.7 | 33.7
Kdg4 (GeneID 66128) | 3 | 70.4 | 69.8
Fam131a (GeneID 78408) | 1 | 68.1 | 97
Fam131a (GeneID 78408) | 2 | 54.9 | 53
Fam131a (GeneID 78408) | 3 | 66.3 | 75.6
Or2y1b (GeneID 18307) | 1 | 74 | 71.5
Or2y1b (GeneID 18307) | 2 | 107 | 85.3
Or2y1b (GeneID 18307) | 3 | 85.4 | 60.3
Fam161b (GeneID 217705) | 1 | 93.8 | 50.9
Fam161b (GeneID 217705) | 2 | 83 | 83.3
Fam161b (GeneID 217705) | 3 | 71.8 | 56.1
